Percent effect of library compounds

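Assay of Toxoplasma gondii numbers, read through their beta-galactosidase reporter with a colour substrate. Tested at 50 µM. The record gives no direction; the compounds picked for IC50 retests had high values, so higher reads as fewer parasites. About 18,000 compounds were tested under these conditions; 0.94% (about 170) showed 50% or more at least once.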

Values are the deposited “Percent Effect”, in %.
The record does not define 0% and 100%; most values in the screen are far below 50% and negative numbers occur (in some assays of this library far below -100).
This is an unselected part of the compounds tested.

CCCNC(=O)CC1Sc2ccccc2NC1=O (configuration not stated) gave 1.515%. With NCc1noc(-c2ccc3c(c2)OCO3)n1 the screen gave -25.39%. CS(=O)(=O)NCc1ccnc(N2CCCCCC2)c1 gave -24.98%. With Cn1ccnc1CN(CC1CCOC1)C1CC1 (configuration not stated) the screen gave -3.497%.

For O[C@@H]1CCN(CC=Cc2ccc(F)cc2)C1 the result was 12.31%. CCC(C)OCC(=O)Nc1cn(C)cc(Br)c1=O (configuration not stated) read 2.834%. For COCCn1cnnc1CCNc1ncccn1 the result was -2.24%. For CC(C)c1cccc(S(=O)(=O)N(C)Cc2nnc[nH]2)c1 the result was -11.93%.

With COc1ncccc1C(=O)N1CCc2[nH]ncc2C1 the screen gave -5.035%. For COCC(NC(=O)Nc1ccccc1F)C(N)=O (configuration not stated) the result was -31.35%. For CC1=CCN(Cc2ccc(N(C)C)nc2)CC1 the result was -9.361%. N#CCCNC(=O)CN1CCN(C2CCCC2)CC1 read 6.071%.

CC(=O)Nc1nc(C(=O)Nc2nccs2)cs1 gave 1.313%. For Nc1cnc(Br)cn1 the result was 28.7%. With CSCCCN1CCN(c2cccnc2)CC1 the screen gave 1.522%. With Cc1ccc(S(N)(=O)=O)c2cccnc12 the screen gave -11.47%.

NCC1(NS(=O)(=O)c2cccc3nonc23)CCCC1 read -3.738%. Result for COc1cc(OC)cc(N2CCC(N)CC2)c1 was 28.14%. For NC1CCN(c2cccc(Cl)c2)C1 (configuration not stated) the result was -14.07%. Result for CNCC(=O)Nc1ccccc1OC was 7.8%.

With CN(C)C[C@@H]1[C@H]2CN(Cc3ccc(CO)o3)C[C@@H]12 the screen gave 7.536%. Result for CCc1ccc(S(=O)(=O)NC(CO)C(=O)OC)cc1 (configuration not stated) was -8.622%. For Cc1ccc(NC(=O)N2CCC(O)C2)cc1OC(F)F (configuration not stated) the result was 2.867%. CCC(=O)c1cccc(OC)n1 read 98.31%.

CN1CCCC(CCC(=O)NCCn2ccnc2)C1 (configuration not stated) gave 11.93%. Cc1cc(C)nc(N2CCC2)n1 read -7.6%. Result for CN(C)S(=O)(=O)CCCN1CCCC1c1ccccn1 (configuration not stated) was 24.9%. CN(C)[C@H]1CN(Cc2ccc(F)cc2Cl)C[C@@H]1O gave -5.962%.

COC[C@@H](O)CNC(=O)NC(C)Cc1cccc(Br)c1 (some centres not stated) read 0.02201%. For O=S(=O)(c1ccc(Br)cc1)N1CCOCC1 the result was 27.87%. Result for Cc1cnc(C(=O)NCCCc2ccccn2)cn1 was -7.402%. Result for CCC1(N)CCOCC1 was -9.575%.

With CNC(=O)CCN1CC(Oc2ccc(C)cc2)C1 the screen gave 49.96%. With Cc1c[nH]c(CN(C)C(=O)CSCCN2CCCC2)n1 the screen gave -9.955%. For CS(=O)(=O)c1cccc(S(=O)(=O)Nc2ccccc2)c1 the result was 22.15%. NC(=O)c1ccc(OCC(F)(F)C(F)F)nc1 read -26.29%.

With Cc1cc(C(=O)NCC2CCCCC(=O)N2)n(C)n1 (configuration not stated) the screen gave 13.2%. NCc1ccc(OCC2CC2)nc1 gave -0.3293%. Cn1cc(NC(=O)CCOc2ccc(F)cc2)cn1 read 2.742%. NCCNC(=O)CC(N)c1ccccc1 (configuration not stated) gave -13.07%.

Result for CCN(CC)C(=O)COc1ccc(OC)cc1C(N)=O was 6.467%. With COc1ccc(Br)c(S(=O)(=O)NCCCN)c1 the screen gave 7.609%. For Cc1nn(C)c(C)c1CCC(=O)N1CCCN(C)CC1 the result was 1.318%. With CC(O)CN(C)C1CCNCC1 (configuration not stated) the screen gave -7.74%.

CCOC(C)c1nccn1Cc1ccc(C(N)=O)cc1 (configuration not stated) read 5.839%. With CC1(C)Oc2ccc(NC(=O)C3CCOC3)cc2O1 (configuration not stated) the screen gave 3.122%. CNC(=O)c1ccc(N2CCOCC2)c(F)c1 gave 2.598%.

Some entries from above, unchanged:

structure	percent effect
CN(C)[C@H]1CN(Cc2ccc(F)cc2Cl)C[C@@H]1O	-5.962%
COc1ccc(Br)c(S(=O)(=O)NCCCN)c1	7.609%
NC(=O)c1ccc(OCC(F)(F)C(F)F)nc1	-26.29%
CC1=CCN(Cc2ccc(N(C)C)nc2)CC1	-9.361%

The values are deposited in ChEMBL (CHEMBL3988442, “University of Dundee, Small-Polar-MMV Screening Library” (2021)).